These are yes or no findings as the source states them, for the method shown. In cells and extracts the contact can be indirect. Some binding calls cover weakened binding; strength is not graded here.

Amino acid sequences for entries named in this document (tags omitted). Residues count along the entry.
UniProt P98161, residues 24-4303: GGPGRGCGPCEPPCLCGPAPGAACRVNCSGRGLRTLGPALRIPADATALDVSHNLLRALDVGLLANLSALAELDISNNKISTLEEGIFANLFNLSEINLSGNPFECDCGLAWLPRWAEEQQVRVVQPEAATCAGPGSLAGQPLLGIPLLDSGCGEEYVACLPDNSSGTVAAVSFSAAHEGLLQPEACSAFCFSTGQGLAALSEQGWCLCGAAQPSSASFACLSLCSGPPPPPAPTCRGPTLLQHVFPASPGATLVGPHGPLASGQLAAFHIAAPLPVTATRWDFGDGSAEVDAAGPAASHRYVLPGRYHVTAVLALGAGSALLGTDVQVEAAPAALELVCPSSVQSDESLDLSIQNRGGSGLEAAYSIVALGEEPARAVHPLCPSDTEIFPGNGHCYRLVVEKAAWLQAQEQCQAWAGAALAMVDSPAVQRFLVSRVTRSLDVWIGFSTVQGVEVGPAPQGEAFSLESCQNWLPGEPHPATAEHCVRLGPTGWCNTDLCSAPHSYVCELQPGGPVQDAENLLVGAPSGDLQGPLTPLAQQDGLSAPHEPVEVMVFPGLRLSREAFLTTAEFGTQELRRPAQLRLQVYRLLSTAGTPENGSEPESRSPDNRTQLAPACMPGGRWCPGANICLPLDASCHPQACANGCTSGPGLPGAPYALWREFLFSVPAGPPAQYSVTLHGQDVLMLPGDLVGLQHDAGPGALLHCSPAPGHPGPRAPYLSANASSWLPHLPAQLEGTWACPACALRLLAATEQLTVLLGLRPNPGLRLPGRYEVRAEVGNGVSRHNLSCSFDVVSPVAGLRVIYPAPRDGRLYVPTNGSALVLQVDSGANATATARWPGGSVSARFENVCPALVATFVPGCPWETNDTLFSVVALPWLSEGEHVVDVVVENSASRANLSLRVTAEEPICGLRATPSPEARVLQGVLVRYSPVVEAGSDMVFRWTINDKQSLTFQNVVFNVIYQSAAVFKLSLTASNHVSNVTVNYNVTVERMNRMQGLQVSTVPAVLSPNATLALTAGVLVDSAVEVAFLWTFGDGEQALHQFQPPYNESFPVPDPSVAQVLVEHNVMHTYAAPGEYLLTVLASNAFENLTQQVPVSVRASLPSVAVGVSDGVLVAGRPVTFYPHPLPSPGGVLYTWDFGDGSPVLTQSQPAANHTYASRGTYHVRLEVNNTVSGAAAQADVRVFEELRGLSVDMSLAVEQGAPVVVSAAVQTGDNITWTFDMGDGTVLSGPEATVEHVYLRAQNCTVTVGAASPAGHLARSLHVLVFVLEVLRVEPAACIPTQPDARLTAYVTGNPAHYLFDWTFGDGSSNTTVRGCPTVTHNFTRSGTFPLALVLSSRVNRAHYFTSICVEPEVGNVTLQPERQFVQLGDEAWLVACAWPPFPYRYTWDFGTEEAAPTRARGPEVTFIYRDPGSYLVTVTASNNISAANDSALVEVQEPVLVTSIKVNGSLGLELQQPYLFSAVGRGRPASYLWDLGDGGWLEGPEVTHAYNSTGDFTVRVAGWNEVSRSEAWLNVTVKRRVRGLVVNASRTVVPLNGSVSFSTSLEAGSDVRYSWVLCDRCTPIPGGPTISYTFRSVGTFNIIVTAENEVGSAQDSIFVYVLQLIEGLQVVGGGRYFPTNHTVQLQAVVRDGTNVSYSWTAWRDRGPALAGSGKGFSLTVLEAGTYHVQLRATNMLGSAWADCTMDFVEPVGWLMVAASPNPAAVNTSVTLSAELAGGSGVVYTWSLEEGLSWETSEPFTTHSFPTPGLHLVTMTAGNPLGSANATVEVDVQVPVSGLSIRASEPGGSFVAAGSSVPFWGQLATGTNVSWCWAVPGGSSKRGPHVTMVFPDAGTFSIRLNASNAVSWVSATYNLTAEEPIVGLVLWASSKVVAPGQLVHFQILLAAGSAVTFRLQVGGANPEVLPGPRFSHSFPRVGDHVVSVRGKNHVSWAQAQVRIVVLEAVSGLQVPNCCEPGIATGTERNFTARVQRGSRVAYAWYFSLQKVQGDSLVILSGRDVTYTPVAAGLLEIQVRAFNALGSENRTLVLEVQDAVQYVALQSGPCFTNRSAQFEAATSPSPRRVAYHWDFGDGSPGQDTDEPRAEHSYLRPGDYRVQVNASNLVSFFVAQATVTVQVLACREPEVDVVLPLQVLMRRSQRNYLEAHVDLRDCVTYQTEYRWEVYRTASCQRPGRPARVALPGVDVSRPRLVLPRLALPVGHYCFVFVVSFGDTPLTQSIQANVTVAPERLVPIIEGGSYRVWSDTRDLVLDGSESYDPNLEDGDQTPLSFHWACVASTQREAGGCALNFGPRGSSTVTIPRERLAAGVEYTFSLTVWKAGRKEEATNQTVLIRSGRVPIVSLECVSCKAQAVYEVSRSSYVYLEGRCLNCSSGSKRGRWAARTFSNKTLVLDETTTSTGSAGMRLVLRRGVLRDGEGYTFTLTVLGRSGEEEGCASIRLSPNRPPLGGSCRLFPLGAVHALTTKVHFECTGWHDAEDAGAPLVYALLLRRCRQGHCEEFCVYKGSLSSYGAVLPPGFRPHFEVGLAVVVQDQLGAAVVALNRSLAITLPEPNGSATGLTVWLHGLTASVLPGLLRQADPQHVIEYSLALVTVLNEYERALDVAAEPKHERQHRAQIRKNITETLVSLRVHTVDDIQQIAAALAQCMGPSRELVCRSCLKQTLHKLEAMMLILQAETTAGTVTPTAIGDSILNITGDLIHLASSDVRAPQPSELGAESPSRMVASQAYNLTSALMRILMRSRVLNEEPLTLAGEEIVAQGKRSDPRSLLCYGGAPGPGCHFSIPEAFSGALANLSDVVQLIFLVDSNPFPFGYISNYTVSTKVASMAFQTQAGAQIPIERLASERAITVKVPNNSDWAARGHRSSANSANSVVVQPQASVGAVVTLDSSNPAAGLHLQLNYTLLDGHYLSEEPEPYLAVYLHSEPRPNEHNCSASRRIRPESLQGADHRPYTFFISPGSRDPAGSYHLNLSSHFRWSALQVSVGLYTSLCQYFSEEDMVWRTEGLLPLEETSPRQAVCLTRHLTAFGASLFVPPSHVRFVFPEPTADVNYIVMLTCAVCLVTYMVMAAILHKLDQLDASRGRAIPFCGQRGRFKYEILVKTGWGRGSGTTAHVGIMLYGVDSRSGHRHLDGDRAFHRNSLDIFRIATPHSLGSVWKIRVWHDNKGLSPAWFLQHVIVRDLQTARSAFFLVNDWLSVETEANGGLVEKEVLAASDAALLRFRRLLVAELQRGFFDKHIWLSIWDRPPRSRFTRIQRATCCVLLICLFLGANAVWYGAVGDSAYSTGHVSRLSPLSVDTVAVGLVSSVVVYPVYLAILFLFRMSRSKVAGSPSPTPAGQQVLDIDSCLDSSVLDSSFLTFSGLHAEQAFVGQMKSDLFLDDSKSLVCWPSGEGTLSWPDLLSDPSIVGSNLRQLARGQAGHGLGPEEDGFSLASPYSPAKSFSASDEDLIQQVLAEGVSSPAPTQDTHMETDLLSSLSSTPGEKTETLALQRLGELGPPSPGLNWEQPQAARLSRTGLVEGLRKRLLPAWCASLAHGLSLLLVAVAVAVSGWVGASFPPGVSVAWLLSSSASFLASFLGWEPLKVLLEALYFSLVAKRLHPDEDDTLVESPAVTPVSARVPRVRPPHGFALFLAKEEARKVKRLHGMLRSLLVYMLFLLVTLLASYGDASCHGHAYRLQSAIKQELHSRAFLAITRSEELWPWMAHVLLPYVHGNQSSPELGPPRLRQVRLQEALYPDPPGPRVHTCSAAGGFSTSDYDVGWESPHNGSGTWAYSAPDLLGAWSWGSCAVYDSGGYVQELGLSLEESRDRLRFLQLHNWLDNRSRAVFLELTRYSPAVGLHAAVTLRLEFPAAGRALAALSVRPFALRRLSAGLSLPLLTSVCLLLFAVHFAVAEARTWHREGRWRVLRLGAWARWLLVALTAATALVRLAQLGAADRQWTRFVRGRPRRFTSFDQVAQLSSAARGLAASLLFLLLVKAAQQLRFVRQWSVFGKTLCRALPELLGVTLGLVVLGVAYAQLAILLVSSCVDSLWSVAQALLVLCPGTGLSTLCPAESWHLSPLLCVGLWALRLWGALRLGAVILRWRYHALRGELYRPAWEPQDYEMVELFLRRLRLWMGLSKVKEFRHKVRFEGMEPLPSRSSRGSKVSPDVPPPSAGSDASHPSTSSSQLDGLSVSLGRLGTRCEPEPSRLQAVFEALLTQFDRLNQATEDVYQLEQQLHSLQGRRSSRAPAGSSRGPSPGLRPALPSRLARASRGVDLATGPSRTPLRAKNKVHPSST
UniProt Q3SXY8: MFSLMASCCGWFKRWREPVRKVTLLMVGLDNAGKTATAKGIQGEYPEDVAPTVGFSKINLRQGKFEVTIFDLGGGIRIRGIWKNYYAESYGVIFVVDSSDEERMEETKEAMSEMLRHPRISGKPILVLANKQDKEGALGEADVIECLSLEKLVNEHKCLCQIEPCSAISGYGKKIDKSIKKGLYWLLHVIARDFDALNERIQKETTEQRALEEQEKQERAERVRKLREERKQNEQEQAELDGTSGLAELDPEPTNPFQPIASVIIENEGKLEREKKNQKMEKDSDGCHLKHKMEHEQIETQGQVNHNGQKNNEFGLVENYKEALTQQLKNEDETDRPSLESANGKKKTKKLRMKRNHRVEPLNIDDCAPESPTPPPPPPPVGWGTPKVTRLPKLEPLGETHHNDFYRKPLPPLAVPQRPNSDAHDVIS
UniProt P20700: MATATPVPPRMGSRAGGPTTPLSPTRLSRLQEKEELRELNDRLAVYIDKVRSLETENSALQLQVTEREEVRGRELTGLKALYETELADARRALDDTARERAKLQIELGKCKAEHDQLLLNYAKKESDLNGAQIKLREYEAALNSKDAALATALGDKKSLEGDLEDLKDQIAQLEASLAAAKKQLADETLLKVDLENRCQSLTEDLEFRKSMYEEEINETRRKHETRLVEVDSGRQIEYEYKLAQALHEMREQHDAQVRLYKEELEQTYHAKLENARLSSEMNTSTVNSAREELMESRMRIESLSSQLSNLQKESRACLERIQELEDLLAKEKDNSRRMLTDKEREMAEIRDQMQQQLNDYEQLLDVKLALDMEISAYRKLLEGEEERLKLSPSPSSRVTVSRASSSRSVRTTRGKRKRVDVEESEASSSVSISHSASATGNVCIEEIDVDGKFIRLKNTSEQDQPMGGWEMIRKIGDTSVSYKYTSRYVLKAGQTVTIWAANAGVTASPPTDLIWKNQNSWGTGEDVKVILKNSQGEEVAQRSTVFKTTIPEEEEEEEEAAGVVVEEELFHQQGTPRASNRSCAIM

From publication PMC12663635 come the findings set out here.

In this experiment the target is polycystin-1 (human (endogenous in NHPTK)) (UniProt P98161). The experiment is described as follows: proximity ligation; Duolink PLA in fixed NHPTK RECs with antibodies to the endogenous proteins; non-starved cells (PC1+ARL13B also in ciliated cells); PLA signal per cell.

In the case of ARL13B (from UniProt Q3SXY8 1-428), the binding result was “binds”.

For the substance LAMINB1 (from UniProt P20700 1-586), the binding result is “no binding”.
